Data: PubChem BioAssay AID1487 (National Center for Advancing Translational Sciences (NCATS), 2009)
The other results are listed elsewhere or left out. Further columns of the screen follow, without active or inactive calls. Compounds called inactive in the main read-out are mostly missing here. Potencies come from curve fits of mixed quality, noted in brackets.

Experiment: qHTS Assay for Modulators of Lamin A Splicing
Settings: HeLa LMNA splicing GFP/RFP minigene ratio, 48 h
Method in brief: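 S3 HeLa cells stably expressing lamin A-EGFP splicing minigene plus DsRed2, 600 cells/well, 48 h compound exposure at 37C. Laser-scanning cytometry; analysed as GFP (500-530 nm)/RFP (575-640 nm) total intensity ratio; 0.5% DMSO vehicle.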

[1] = measured here: GFP splicing reporter channel
[2] = measured here: RFP viability control channel

Compound	AC50 [1]	AC50 [2]
On1c(-c2ccc(Cl)cc2)nc2ccccc21	28.2 µM [falling, single point]	14.1 µM [falling, single point]
O=C(CCSc1nc(-c2ccco2)cc(C(F)(F)F)n1)N1CCN(c2ccccc2)CC1		8.91 µM [rising, partial curve]
O=C(CSc1ncnc2c1cnn2-c1ccccc1)Nc1ccccc1	15.8 µM [rising, single point]	14.1 µM [rising, partial curve]
CCn1cc(C(=O)NCc2ccccc2)c(=O)c2cc(F)c(N3CCN(C(=O)c4ccco4)CC3)cc21	35.5 µM [rising, single point]	31.6 µM [rising, single point]
Cc1nnc2c(NC(C)C)nc3ccccc3n12	10 µM [rising, partial curve, poor fit]	14.1 µM [rising, partial curve]
CC(=O)c1c(N2CCOCC2)[nH]c(-c2ccccc2)nc1=S	15.8 µM [rising, single point]	
N#Cc1ccc(NC(=O)Nc2cccc(C#N)c2)cc1	35.5 µM [rising, single point]	
O=C(COC(=O)C1CC1)Nc1ccc2[nH]c(=O)[nH]c2c1	0.316 µM [rising, full curve, poor fit]	4.47 µM [rising, full curve, poor fit]
Nc1cc(-c2ccccc2)nn1Cc1ccc(Cl)cc1	1 µM [rising, full curve, poor fit]	17.8 µM [rising, partial curve, poor fit]
CCOC(=O)c1c(C)[nH]c(C)c1C(=O)CSc1nc2ccccc2c(=O)n1-c1ccc(C)cc1	17.8 µM [rising, single point]	25.1 µM [rising, partial curve]
N#CC1=CN(Cc2ccccc2)C=C(/C=N/Nc2ccccc2)C1	35.5 µM [rising, partial curve, poor fit]	31.6 µM [rising, single point]
CCOC(=O)c1c(NC(=O)CSc2nnc(-c3cccnc3)n2Cc2ccco2)sc(C)c1C		12.6 µM [rising, single point]
CCCc1c(OCCCCc2nn[nH]n2)ccc(C(C)=O)c1O	12.6 µM [rising, partial curve, poor fit]	11.2 µM [rising, partial curve]
Cc1occc1C(=O)Nc1sc2c(c1C(N)=O)CCCCC2		14.1 µM [rising, partial curve, poor fit]
Cn1c(Cl)cnc1C1CC(=O)c2cc(Cl)ccc2O1 (stereo unspecified)	35.5 µM [falling, single point]	
O=C1CC(N2CCN(c3ccc(F)cc3)CC2)C(=O)N1c1ccccc1 (stereo unspecified)		3.55 µM [falling, partial curve, poor fit]
COc1cc(/C=N/NC(=O)c2ccc3ccccc3c2)ccc1Oc1ccc([N+](=O)[O-])cn1		22.4 µM [rising, single point]
O=[N+]([O-])c1ccc(Oc2ccc(-c3cnc4ccccc4n3)cc2[N+](=O)[O-])cc1		2.82 µM [rising, full curve]
CC(C)CCNC(=O)c1ccc2c(c1)NC(=O)C(CS(=O)(=O)Cc1cccc(Br)c1)N2 (stereo unspecified)	22.4 µM [falling, partial curve]	35.5 µM [falling, single point]
COc1ccc(-c2nc(-c3cccs3)c(-c3cccs3)[nH]2)cc1OC	35.5 µM [rising, single point]	31.6 µM [rising, single point]
O=C(Nc1ccc(Br)cn1)c1ccc([N+](=O)[O-])o1	7.08 µM [falling, full curve]	12.6 µM [falling, partial curve]
Cc1cc(NC(=O)c2cccc([N+](=O)[O-])c2)n(-c2ccccc2)n1	22.4 µM [rising, single point]	17.8 µM [rising, single point]
O=C(C1CCN(S(=O)(=O)c2ccc(Br)s2)CC1)N1CCc2ccccc21	5.01 µM [rising, partial curve]	14.1 µM [rising, partial curve]
CC(C(=O)NCCN1CCOCC1)(c1ccccc1)c1ccccc1		0.0112 µM [falling, full curve, poor fit]
COc1ccccc1/C=N/NC(=O)c1csc(C)c1C		0.0178 µM [falling, full curve, poor fit]
O=C(NC(=S)N1CCN(Cc2ccccc2)CC1)c1cccnc1		0.0141 µM [rising, full curve, poor fit]
CCn1c(=N)c(S(=O)(=O)c2ccc(C)cc2)cc2c(=O)n3ccccc3nc21		0.631 µM [falling, full curve, poor fit]
O=C(NC1CCCCC1)N1CCC(c2nc3ccc(Cl)cc3[nH]2)CC1		35.5 µM [rising, single point]

Compound	AC50 [1]	AC50 [2]
Cc1nn(S(=O)(=O)c2cccc([N+](=O)[O-])c2)c(C)c1Br		14.1 µM [rising, single point]
O=C1C2C(C(=O)N1/N=C/c1cc(Br)cc([N+](=O)[O-])c1O)C1C=CC2C12CC2 (stereo unspecified)		11.2 µM [rising, single point]
COc1ccccc1N1CCN(C(c2ccccc2Cl)c2nnnn2C(C)(C)C)CC1 (stereo unspecified)	35.5 µM [rising, single point]	35.5 µM [rising, single point]
CCC1CCCCN1CCCNC(=O)c1cc2c(Cl)nc3ccccc3c2s1 (stereo unspecified)		14.1 µM [rising, partial curve, poor fit]
Cc1ccc(-n2nc3c(c2NC(=O)/C=C\c2ccc4c(c2)OCO4)CSC3)cc1		12.6 µM [rising, partial curve, poor fit]
COc1ccc(CCNCC(O)Cn2ccc3ccccc32)cc1OC (stereo unspecified)		0.00316 µM [falling, full curve, poor fit]
Cc1ccc(CNC(=O)c2ccc3c(c2)nc(C)n3-c2cc(C)cc(C)c2)cc1	35.5 µM [falling, partial curve]	
COc1ccc(-n2nnnc2SCC(=O)c2ccc(O)c(O)c2)cc1	35.5 µM [rising, single point]	35.5 µM [rising, single point]
C=CCNC(=S)NNc1ncnc2sc3c(c12)CC(C)(C)OC3		11.2 µM [falling, single point]
CCn1c(SCC(=O)Nc2nccs2)nnc1-c1ccc(S(=O)(=O)N2CCCCC2)cc1		12.6 µM [rising, partial curve]
CCCCC(=O)/C=C/n1c(=S)oc2ccccc21		35.5 µM [rising, single point]
NNc1nnc(-c2ccccc2)c(-c2ccccc2)n1		35.5 µM [rising, single point]
C=C(C)COc1ccc(-c2n[nH]c(C)c2-c2ccc(Br)cc2)c(O)c1	10 µM [falling, partial curve]	8.91 µM [falling, partial curve]
CC(C)(C)N(Cc1ccccc1)C(=O)COC(=O)CCc1c[nH]c2ccccc12		35.5 µM [rising, single point]
CCCn1c(C)cc(C(=O)COC(=O)c2cc(S(=O)(=O)NCC(C)C)c(Cl)cc2Cl)c1C		31.6 µM [rising, single point]
N#CC1=C(SCC(N)=O)NC2=C(C(=O)c3ccccc32)C1c1ccc(Cl)cc1 (stereo unspecified)	22.4 µM [falling, single point]	35.5 µM [falling, single point]
Cc1cc(C)c(C#N)c(Oc2ccc(O)cc2)n1		10 µM [rising, partial curve, poor fit]
COc1ccc(Cl)cc1NC(=O)CN(C(=O)c1ccco1)C1CCCCC1	8.91 µM [rising, partial curve]	10 µM [rising, single point]
CCCCOc1ccc(C(=O)CCN2CCOCC2)cc1	5.62 µM [falling, single point]	5.62 µM [falling, single point]
COc1nnc(-c2ccc(N3CCOCC3)c(NC(=O)c3ccc(C)cc3)c2)c2ccccc12		20 µM [falling, single point]
CCN1C(=O)N[C@@H](c2ccco2)C(C(=O)OC)=C1C		0.00631 µM [falling, full curve, poor fit]
COC(=O)Cc1c(O)ccn(Cc2ccc3c(c2)OCO3)c1=O	0.0316 µM [rising, full curve, poor fit]	
Cc1c(C(=O)N2c3ccccc3Sc3ccccc32)cccc1[N+](=O)[O-]	1.26 µM [rising, full curve, poor fit]	17.8 µM [rising, partial curve, poor fit]
CCc1cc2c(C)cc(=O)oc2cc1OC(=O)C1CCCN1C(=O)OC(C)(C)C (stereo unspecified)	14.1 µM [falling, partial curve, poor fit]	
CS(=O)(=O)N(CC(=O)N1CCN(c2ccccc2)CC1)Cc1ccc(Cl)cc1		31.6 µM [rising, single point]
O=C(Nc1ccccc1)N1CCN(c2cccc(C(F)(F)F)c2)CC1		35.5 µM [rising, single point]
CC(C)N(Cc1nc(-c2ccccc2)no1)C(=O)c1ccc([N+](=O)[O-])cc1	17.8 µM [falling, partial curve, poor fit]	

Structures listed so far that have a thiophene ring, fused or not (7):
Compound	AC50 [1]	AC50 [2]
CCOC(=O)c1c(NC(=O)CSc2nnc(-c3cccnc3)n2Cc2ccco2)sc(C)c1C		12.6 µM [rising, single point]
Cc1occc1C(=O)Nc1sc2c(c1C(N)=O)CCCCC2		14.1 µM [rising, partial curve, poor fit]
COc1ccc(-c2nc(-c3cccs3)c(-c3cccs3)[nH]2)cc1OC	35.5 µM [rising, single point]	31.6 µM [rising, single point]
O=C(C1CCN(S(=O)(=O)c2ccc(Br)s2)CC1)N1CCc2ccccc21	5.01 µM [rising, partial curve]	14.1 µM [rising, partial curve]
COc1ccccc1/C=N/NC(=O)c1csc(C)c1C		0.0178 µM [falling, full curve, poor fit]
CCC1CCCCN1CCCNC(=O)c1cc2c(Cl)nc3ccccc3c2s1 (stereo unspecified)		14.1 µM [rising, partial curve, poor fit]
C=CCNC(=S)NNc1ncnc2sc3c(c12)CC(C)(C)OC3		11.2 µM [falling, single point]

3 compounds already listed, arranged by SMILES length, largest number first.
Compound	AC50 [1]	AC50 [2]
CCCn1c(C)cc(C(=O)COC(=O)c2cc(S(=O)(=O)NCC(C)C)c(Cl)cc2Cl)c1C		31.6 µM [rising, single point]
COc1nnc(-c2ccc(N3CCOCC3)c(NC(=O)c3ccc(C)cc3)c2)c2ccccc12		20 µM [falling, single point]
Cc1cc(C)c(C#N)c(Oc2ccc(O)cc2)n1		10 µM [rising, partial curve, poor fit]
